According to patent publication US20220073565A1 (University of Washington, published 2022):
No constants are given. Whether binding was seen depends on the method and setting. Some binding calls cover weakened binding; strength is not graded here.

Biological target: T1, mSin3A-PAH2 domain (UniProt Q60520 300-383, biotin)
T1 construct: domain: PAH2; 0.1 µg immobilised on streptavidin biosensor tips; also called Biotin-mSin3A-PAH2; PAH2 domain of the mSin3A transcriptional repressor
T1 sequence (looked up): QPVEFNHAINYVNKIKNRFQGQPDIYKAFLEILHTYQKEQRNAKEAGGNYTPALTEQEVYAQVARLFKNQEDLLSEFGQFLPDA
Test: bio-layer interferometry, Biotin-mSin3A-PAH2 on streptavidin tips, 50 nM cage with 500 nM Keya

B1: 1fix_309_Mad1 (designed binder)
chain: MGSHHHHHHGSGSENLYFQGSKEAAKKLQDLNIELARKLLEASTKLQRLNIRLAEALLEAIARLQELNLELVYLAVELTDPKRIRDEIKEVKDKSKEIIRRAEKEIDDAAKESKKILEEARKAIRDAAEESRKILEEGSGSGSDALDELQKLNLELAKLLLKAIAETQDLNLRAAKAFLEAAAKLQELNIRAVELLVKLTDPATIRRALEHAKRRSKEIIDEAERAIRAAKRESERIIEEARRLIEKAKEESERIIREGSGSGDPDIKKLQDLNIELARELLRAHAQLQRLNLELLRELLRALAQLQELNLDLLRLASELTDPDEARKNIQMLLEAADYLEEDAERLIREAAAASEKISREAERLIREAASEKISRE
  binding: binds
